Laboratory results reported in the supplement of paper PMC10849652.
Some of the results follow.

Sequences of proteins named here, by UniProt entry; tags and fusion partners are left off. A change or cut given only in a name is not applied to a line headed by its entry.
UniProt Q9BRR6: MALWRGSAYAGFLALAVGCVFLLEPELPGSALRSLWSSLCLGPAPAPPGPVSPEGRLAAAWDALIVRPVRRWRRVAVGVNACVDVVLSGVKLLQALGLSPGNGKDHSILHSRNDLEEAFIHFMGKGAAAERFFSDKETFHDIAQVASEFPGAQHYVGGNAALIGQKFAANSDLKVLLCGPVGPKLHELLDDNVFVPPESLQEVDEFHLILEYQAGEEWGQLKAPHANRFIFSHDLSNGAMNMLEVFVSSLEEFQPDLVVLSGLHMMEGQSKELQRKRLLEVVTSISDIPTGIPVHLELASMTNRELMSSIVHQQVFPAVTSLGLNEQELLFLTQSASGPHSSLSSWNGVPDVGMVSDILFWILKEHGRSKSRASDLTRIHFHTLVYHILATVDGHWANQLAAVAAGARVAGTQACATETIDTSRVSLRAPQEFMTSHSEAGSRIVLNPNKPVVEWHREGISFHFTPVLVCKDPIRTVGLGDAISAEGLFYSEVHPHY
UniProt Q3MIX3: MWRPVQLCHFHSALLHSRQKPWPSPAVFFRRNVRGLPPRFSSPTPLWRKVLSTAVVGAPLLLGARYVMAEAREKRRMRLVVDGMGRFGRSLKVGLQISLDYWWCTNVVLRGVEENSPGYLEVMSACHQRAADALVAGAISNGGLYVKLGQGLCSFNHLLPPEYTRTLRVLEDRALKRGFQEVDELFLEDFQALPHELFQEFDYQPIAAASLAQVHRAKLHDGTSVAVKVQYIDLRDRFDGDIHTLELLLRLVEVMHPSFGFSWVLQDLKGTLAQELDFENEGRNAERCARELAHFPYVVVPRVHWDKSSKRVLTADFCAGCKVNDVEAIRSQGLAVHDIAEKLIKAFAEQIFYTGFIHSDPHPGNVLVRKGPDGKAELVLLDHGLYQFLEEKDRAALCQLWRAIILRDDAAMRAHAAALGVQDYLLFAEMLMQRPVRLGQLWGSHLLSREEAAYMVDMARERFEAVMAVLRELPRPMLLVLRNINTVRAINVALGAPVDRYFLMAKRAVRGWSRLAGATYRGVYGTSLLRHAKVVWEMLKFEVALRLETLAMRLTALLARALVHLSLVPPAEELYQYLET
UniProt O60266: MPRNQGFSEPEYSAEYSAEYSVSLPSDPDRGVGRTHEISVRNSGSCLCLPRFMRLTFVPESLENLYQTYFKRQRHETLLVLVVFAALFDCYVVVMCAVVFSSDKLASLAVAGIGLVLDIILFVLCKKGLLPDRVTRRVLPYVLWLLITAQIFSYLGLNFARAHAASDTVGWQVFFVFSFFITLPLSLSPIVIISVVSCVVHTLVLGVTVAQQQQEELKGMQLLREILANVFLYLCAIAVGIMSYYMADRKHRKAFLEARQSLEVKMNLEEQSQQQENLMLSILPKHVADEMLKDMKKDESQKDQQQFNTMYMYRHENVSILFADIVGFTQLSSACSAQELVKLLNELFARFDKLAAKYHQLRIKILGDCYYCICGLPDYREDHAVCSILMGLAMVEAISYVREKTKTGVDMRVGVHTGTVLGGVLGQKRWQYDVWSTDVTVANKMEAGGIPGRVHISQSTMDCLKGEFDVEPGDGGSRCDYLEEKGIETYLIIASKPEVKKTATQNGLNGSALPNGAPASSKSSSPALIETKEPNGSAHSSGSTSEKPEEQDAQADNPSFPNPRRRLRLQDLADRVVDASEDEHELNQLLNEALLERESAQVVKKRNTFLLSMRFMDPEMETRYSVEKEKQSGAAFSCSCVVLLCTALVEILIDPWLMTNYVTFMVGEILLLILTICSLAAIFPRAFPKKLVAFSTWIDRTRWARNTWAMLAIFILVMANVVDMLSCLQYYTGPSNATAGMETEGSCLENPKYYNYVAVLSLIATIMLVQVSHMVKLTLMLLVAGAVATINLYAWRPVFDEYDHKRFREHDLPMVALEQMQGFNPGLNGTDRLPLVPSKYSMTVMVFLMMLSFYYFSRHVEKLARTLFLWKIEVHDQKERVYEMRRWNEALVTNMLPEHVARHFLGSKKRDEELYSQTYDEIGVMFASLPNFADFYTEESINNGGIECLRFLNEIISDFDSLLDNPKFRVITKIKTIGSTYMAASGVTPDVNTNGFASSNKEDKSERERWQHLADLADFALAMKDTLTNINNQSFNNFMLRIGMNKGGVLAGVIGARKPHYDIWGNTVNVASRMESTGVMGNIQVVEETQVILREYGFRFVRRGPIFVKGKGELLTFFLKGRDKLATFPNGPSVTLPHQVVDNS
UniProt Q9BV10: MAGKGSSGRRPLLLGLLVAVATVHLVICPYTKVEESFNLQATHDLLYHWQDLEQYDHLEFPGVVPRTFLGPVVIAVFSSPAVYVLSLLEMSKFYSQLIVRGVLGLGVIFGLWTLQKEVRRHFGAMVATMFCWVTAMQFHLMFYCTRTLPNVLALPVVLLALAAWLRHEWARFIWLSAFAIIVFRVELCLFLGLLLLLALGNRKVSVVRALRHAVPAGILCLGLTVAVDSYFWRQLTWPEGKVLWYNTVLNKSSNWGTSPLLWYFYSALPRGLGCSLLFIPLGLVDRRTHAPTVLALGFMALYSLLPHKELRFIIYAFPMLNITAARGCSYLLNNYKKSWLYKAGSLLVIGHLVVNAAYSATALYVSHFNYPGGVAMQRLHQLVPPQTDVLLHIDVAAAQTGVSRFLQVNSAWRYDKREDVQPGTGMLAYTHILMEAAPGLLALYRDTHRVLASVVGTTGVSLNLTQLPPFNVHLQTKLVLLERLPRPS
UniProt P02760: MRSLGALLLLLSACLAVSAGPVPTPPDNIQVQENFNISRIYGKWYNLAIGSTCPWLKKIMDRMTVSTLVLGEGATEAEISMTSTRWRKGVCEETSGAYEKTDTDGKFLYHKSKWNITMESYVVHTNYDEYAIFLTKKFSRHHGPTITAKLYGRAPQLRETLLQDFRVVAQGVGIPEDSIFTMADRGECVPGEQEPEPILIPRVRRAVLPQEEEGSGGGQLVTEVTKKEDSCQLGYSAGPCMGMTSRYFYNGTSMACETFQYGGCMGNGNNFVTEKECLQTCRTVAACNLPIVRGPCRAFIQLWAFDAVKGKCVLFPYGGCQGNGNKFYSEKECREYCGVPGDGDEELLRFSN
UniProt P35573: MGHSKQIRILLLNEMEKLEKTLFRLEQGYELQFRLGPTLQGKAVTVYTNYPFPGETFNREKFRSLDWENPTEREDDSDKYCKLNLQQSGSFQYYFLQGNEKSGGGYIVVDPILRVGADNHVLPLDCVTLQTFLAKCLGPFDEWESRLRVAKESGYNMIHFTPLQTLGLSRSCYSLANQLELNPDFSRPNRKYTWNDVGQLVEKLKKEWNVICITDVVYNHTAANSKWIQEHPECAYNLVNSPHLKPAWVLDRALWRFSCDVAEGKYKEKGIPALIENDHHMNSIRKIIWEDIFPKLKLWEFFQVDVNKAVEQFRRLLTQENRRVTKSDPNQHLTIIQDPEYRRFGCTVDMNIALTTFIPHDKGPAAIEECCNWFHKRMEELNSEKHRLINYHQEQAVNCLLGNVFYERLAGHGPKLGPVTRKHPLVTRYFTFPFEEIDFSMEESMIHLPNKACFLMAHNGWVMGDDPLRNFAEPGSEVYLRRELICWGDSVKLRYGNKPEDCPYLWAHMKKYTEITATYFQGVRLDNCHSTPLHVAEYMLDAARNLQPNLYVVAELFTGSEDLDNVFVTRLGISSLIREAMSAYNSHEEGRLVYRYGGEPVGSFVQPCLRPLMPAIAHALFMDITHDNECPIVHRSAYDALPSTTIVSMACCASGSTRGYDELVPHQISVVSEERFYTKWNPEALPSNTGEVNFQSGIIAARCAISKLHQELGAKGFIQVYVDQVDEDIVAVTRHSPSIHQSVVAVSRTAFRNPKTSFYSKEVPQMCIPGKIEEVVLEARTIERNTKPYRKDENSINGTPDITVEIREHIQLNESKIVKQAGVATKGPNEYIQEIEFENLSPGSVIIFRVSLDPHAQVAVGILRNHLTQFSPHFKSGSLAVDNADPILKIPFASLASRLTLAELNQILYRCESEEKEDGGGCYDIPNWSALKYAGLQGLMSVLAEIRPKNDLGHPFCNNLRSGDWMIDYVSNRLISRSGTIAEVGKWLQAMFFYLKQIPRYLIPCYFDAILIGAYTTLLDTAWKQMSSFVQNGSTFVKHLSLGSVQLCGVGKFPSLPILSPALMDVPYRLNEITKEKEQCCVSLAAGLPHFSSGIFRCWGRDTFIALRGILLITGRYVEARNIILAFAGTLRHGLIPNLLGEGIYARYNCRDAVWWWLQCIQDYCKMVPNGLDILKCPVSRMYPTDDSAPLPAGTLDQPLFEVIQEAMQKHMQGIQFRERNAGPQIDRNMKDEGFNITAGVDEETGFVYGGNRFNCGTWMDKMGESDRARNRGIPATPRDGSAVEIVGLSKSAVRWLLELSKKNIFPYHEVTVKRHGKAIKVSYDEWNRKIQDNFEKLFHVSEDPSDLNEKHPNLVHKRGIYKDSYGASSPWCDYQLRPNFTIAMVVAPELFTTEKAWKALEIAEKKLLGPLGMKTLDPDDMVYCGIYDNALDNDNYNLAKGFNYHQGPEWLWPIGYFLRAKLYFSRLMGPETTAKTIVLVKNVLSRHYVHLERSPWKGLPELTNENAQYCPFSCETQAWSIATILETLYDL
UniProt Q9NYG5, whole entry, looked up: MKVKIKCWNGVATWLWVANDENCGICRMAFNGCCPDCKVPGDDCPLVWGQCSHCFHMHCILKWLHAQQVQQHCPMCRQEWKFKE

Experiments:
Assay in all cases: log2 fold change, soluble protein after heating vs DMSO (PISA); higher = thermal stabilisation; K562 cells, 10 uM, 30 min; active = over 0.2 and 3.5 SD of the protein, either way, in both replicates (recomputed)
[1] = compound: C#Cc1cccc(Nc2ncnc3cc(OCCOC)c(OCCOC)cc23)c1 [erlotinib]
Summary of the method: (§1)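 Soluble protein was quantified by TMTpro 16plex LC-MS/MS after channel sums were equalised. It was obtained as the supernatant after 21,000xg for 90 min from pooled aliquots of K562 cells (2×10^6 cells/mL, 10 μM compound, 30 min) heated for 3 min across 48°C-58°C and extracted in PBS with 0.5% NP-40 at 4°C. Thermal stability values are relative to control samples and come from duplicates. They are given as log2 fold changes.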

[2] = compound: C/C(=N\NC(=O)C1=CC(=CC=C1)S(=O)(=O)N2CCOCC2)/C3=C(C=CC(=C3)Cl)O
Summary of the method: as §1

[3] = compound: C1=CC(=C(C=C1Cl)C2=NC3=NC=CN=C3C(=N2)NC4=CC=NC=C4)F
Summary of the method: as §1

[4] = compound: C1=CC(=CC=C1C2=NC3=C(N2)C=C(C=C3)C(=O)N)OC4=CC=C(C=C4)Cl
Summary of the method: as §1

[5] = compound: C1=CC2=C(C=CC(=C2)/C=C\3/C(=O)NC(=NCC4=CC=CS4)S3)N=C1
Summary of the method: as §1

[6] = compound: C1=CC2=NC=CN=C2C=C1/C=C/3\C(=O)NC(=O)S3
Summary of the method: as §1

[7] = compound: C1=CC=C(C=C1)C2=NC(=C(N2)C3=CC=NC=C3)C4=CC(=C(C=C4)Cl)O
Summary of the method: as §1

[8] = compound: C1=CC=C2C(=C1)C3=NNC4=CC=CC(=C43)C2=O
Summary of the method: as §1

[9] = compound: C1CCN(C1)C(=O)NC2=CC=CC(=C2)NC3=NC=C(C(=N3)NCCC4=CN=CN4)Br
Summary of the method: as §1

[10] = compound: C1CN(CCC1(CC2=CC=C(C=C2)Cl)N)C3=NC=NC4=C3C=CN4
Summary of the method: as §1

Measured: log2 fold change

ADPGK (UniProt Q9BRR6)
inactive: [1] 0.024 | [2] 0 | [3] -0.08 | [4] -0.024 | [5] 0.054 | [6] 0.041 | [7] 0.03 | [8] -0.066 | [9] -0.021 | [10] 0.052

ADCK5 (UniProt Q3MIX3)
inactive: [1] -0.122 | [3] 0.047 | [4] 0.037 | [7] -0.088 | [9] -0.038 | [10] -0.101

ADCY3 (UniProt O60266)
inactive: [1] 0.13 | [2] 0.126 | [4] 0.052 | [5] 0.244 | [7] -0.037 | [8] 0.058 | [9] -0.018 | [10] 0.119

ALG12 (UniProt Q9BV10)
inactive: [1] -0.071 | [2] -0.051 | [3] 0.04 | [4] 0.018 | [5] -0.018 | [6] 0.128 | [8] 0.1 | [9] 0 | [10] 0.127

AMBP (UniProt P02760)
inactive: [1] -0.23 | [4] -0.047 | [6] -0.053

AGL (UniProt P35573)
inactive: [1] 0.004 | [2] -0.019 | [3] -0.296 | [4] 0.025 | [5] -0.031 | [6] 0.012 | [7] -0.098 | [8] 0.063 | [9] -0.038 | [10] -0.118

ANAPC15 isoform 2 (UniProt P60006)
inactive: [1] -0.229 | [2] -0.117 | [4] -0.174 | [5] 0.002 | [8] 0.006 | [9] 0.045 | [10] 0.044

ANAPC11 (UniProt Q9NYG5)
inactive: [1] -0.066 | [4] 0.047 | [6] -0.053
